These results are taken from patent US20240132621A1.

Protein sequences, listed by entry. Tags and fused reporters are not part of them. Residues count along the entry.
UniProt P36222, residues 22-383: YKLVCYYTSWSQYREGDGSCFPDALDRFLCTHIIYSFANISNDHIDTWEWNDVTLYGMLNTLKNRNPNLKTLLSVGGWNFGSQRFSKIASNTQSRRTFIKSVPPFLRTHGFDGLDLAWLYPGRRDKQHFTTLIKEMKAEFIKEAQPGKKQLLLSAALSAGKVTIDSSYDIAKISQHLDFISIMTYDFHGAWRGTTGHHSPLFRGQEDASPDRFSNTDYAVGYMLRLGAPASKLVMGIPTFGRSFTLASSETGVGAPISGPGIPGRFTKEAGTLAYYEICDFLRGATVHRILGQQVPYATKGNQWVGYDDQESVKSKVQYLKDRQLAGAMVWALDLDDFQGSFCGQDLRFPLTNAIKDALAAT

No constants are given. Whether binding was seen depends on the method and setting. Some entries that bind do so weakly or less than the wild type.

In this experiment the target is chitinase-3-like protein-1 (YKL-40) on human ovarian cancer cell CA5171 (human) (UniProt P36222). Put plainly: flow cytometry on human ovarian cancer cell CA5171. Background: In flow cytometry, cells or beads pass a laser one at a time.

B1: YKL-40 neutralizing antibody (antibody, V domains shown)
VH: QIQLVQSGPELKKPGETVRISCKASGYTFPNYGMNWVKQAPGKGLKWMGWINTYTGEPTYTVDFKGQFAFSLETSASTAYLQINNLKNEDTATYFCARSFYGTNGFDYWGQGTTLTVSS
VL: NIVMTQSPKSMSMSVGERVTLSCKASENVGTYVSWYQQKPEQSPKLVIYGASNRYIGVPDRFTGSGSATDFTLTISSVEAEDLADYHCGQSYSYPPTFGGGTKLEIK
In the case of B1, the binding result is on record as “binds”.
